# The other results are listed elsewhere or left out.
# B1: Erv46-EDTA (Saccharomyces cerevisiae), P39727 (protein)
# chain: MKFLVNVALVFMVVYISYIYAAAPEHHHHHHDYDIPTTENLYFQGAMDSVVTRPQLVVDRDRHAKLELNMDVTFPSMPCDLVNLDIMDDSGEMQLDILDAGFTMSRLNSEGRPVGDATELHVGGNGDGTAPVNNDPNYCGPCYGAKDQSQNENLAQEEKVCCQDCDAVRSAYLEAGWAFFDGKNIEQCEREGYVSKINEHLNEGCRIKGSAQINRIQGNLHFAPGKPYQNAYGHFHDTSLYDKTSNLNFNHIINHLSFGKPIQSHSKLLGNDKRHGGAVVATSPLDGRQVFPDRNTHFHQFSYFAKIVPTRYEYLDNVVIETAQFSATFHSRPLAGGRDKDHPNTLHVRGGIPGMFVFFEMSPLKVINKEQ
# How the values were obtained:
# Assay in all cases: glycan array binding signal (z-score within array); higher = stronger binding
# Conditions in all cases: glycan notation: IUPAC condensed, linker removed
# [1] = target: Man(a1-2)Man(a1-3)[Man(a1-2)Man(a1-6)]Man
# Outline: (§1)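 The binding signal is a Z-score computed within each array and averaged over linkers. Arrays of the same protein sequence at different concentrations or buffers were also averaged together. Data originate from 3228 arrays in the Consortium for Functional Glycomics database, kept only where the protein sequence was available.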
# [2] = target: Man(a1-2)Man(a1-3)[Man(a1-2)Man(a1-6)]Man(a1-6)[Man(a1-2)Man(a1-2)Man(a1-3)]Man
# Outline: as §1
# [3] = target: Man(a1-2)Man(a1-3)[Man(a1-2)Man(a1-6)]Man(a1-6)[Man(a1-2)Man(a1-2)Man(a1-3)]Man(b1-4)GlcNAc(b1-4)GlcNAc
# Outline: as §1
# [4] = target: Man(a1-2)Man(a1-3)[Man(a1-6)]Man(a1-6)[Man(a1-2)Man(a1-3)]Man(b1-4)GlcNAc(b1-4)GlcNAc
# Outline: as §1
# [5] = target: Man(a1-2)Man(a1-6)[Man(a1-3)]Man(a1-6)[Man(a1-2)Man(a1-2)Man(a1-3)]Man
# Outline: as §1
# [6] = target: Man(a1-2)Man(a1-6)[Man(a1-3)]Man(a1-6)[Man(a1-2)Man(a1-2)Man(a1-3)]Man(b1-4)GlcNAc(b1-4)GlcNAc
# Outline: as §1
# Man(a1-3)[Man(a1-6)]Man = target: Man(a1-3)[Man(a1-6)]Man
# Outline: as §1
# [7] = target: Man(a1-3)[Man(a1-6)]Man(a1-6)[Man(a1-2)Man(a1-3)]Man(b1-4)GlcNAc(b1-4)GlcNAc
# Outline: as §1
# [8] = target: Man(a1-3)[Man(a1-6)]Man(a1-6)[Man(a1-3)]Man
# Outline: as §1
# [9] = target: Man(a1-3)[Man(a1-6)]Man(a1-6)[Man(a1-3)]Man(b1-4)GlcNAc(b1-4)GlcNAc
# Outline: as §1
# [10] = target: Man(a1-3)[Man(a1-6)]Man(b1-4)GlcNAc(b1-4)GlcNAc
# Outline: as §1
# [11] = target: Man(a1-3)[Man(a1-6)]Man(b1-4)GlcNAc(b1-4)[Fuc(a1-6)]GlcNAc
# Outline: as §1
# Man(a1-6)Man = target: Man(a1-6)Man
# Outline: as §1
# Man(b1-4)GlcNAc = target: Man(b1-4)GlcNAc
# Outline: as §1
# MurNAc(b1-4)GlcNAc = target: MurNAc(b1-4)GlcNAc
# Outline: as §1
# Neu5Ac(a2-3)Gal = target: Neu5Ac(a2-3)Gal
# Outline: as §1
# [12] = target: Neu5Ac(a2-3)Gal(b1-3)GalNAc
# Outline: as §1
# [13] = target: Neu5Ac(a2-3)Gal(b1-3)GalNAc(b1-3)Gal(a1-4)Gal(b1-4)Glc
# Outline: as §1
# [14] = target: Neu5Ac(a2-3)Gal(b1-3)GalNAc(b1-4)Gal(b1-4)Glc
# Outline: as §1
# [15] = target: Neu5Ac(a2-3)Gal(b1-3)GalNAc(b1-4)[Neu5Ac(a2-3)]Gal(b1-4)Glc
# Outline: as §1
# [16] = target: Neu5Ac(a2-3)Gal(b1-3)GalNAc(b1-4)[Neu5Ac(a2-8)Neu5Ac(a2-3)]Gal(b1-4)Glc
# Outline: as §1
# [17] = target: Neu5Ac(a2-3)Gal(b1-3)GalNAc6S
# Outline: as §1
# [18] = target: Neu5Ac(a2-3)Gal(b1-3)GlcNAc
# Outline: as §1
# [19] = target: Neu5Ac(a2-3)Gal(b1-3)GlcNAc(b1-2)Man
# Outline: as §1
# [20] = target: Neu5Ac(a2-3)Gal(b1-3)GlcNAc(b1-2)Man(a1-3)[GlcNAc(b1-4)][Neu5Ac(a2-3)Gal(b1-3)GlcNAc(b1-2)Man(a1-6)]Man(b1-4)GlcNAc(b1-4)GlcNAc
# Outline: as §1
# [21] = target: Neu5Ac(a2-3)Gal(b1-3)GlcNAc(b1-2)Man(a1-3)[Neu5Ac(a2-3)Gal(b1-3)GlcNAc(b1-2)Man(a1-6)]Man(b1-4)GlcNAc(b1-4)GlcNAc
# Outline: as §1
# [22] = target: Neu5Ac(a2-3)Gal(b1-3)GlcNAc(b1-2)[Neu5Ac(a2-3)Gal(b1-3)GlcNAc(b1-4)]Man(a1-6)[Neu5Ac(a2-3)Gal(b1-3)GlcNAc(b1-2)Man(a1-3)]Man(b1-4)GlcNAc(b1-4)GlcNAc
# Outline: as §1
# [23] = target: Neu5Ac(a2-3)Gal(b1-3)GlcNAc(b1-3)Gal(b1-3)GlcNAc
# Outline: as §1
# [24] = target: Neu5Ac(a2-3)Gal(b1-3)GlcNAc(b1-3)Gal(b1-4)GlcNAc
# Outline: as §1
# [25] = target: Neu5Ac(a2-3)Gal(b1-3)GlcNAc(b1-3)GalNAc
# Outline: as §1
# [26] = target: Neu5Ac(a2-3)Gal(b1-3)GlcNAc(b1-6)GalNAc
# Outline: as §1
# [27] = target: Neu5Ac(a2-3)Gal(b1-3)GlcNAc6S
# Outline: as §1
# [28] = target: Neu5Ac(a2-3)Gal(b1-3)[Fuc(a1-4)]GlcNAc
# Outline: as §1
# [29] = target: Neu5Ac(a2-3)Gal(b1-3)[Fuc(a1-4)]GlcNAc(b1-3)Gal(b1-3)[Fuc(a1-4)]GlcNAc
# Outline: as §1
# [30] = target: Neu5Ac(a2-3)Gal(b1-3)[Fuc(a1-4)]GlcNAc(b1-3)Gal(b1-4)[Fuc(a1-3)]GlcNAc
# Outline: as §1
# [31] = target: Neu5Ac(a2-3)Gal(b1-3)[GlcNAc(b1-6)]GalNAc
# Outline: as §1
# [32] = target: Neu5Ac(a2-3)Gal(b1-3)[Neu5Ac(a2-6)]GalNAc
# Outline: as §1
binder,measurement,setting,value
B1,glycan array binding signal (z-score),[1],-0.63
same,glycan array binding signal (z-score),[2],-0.372
same,glycan array binding signal (z-score),[3],-0.41
same,glycan array binding signal (z-score),[4],-0.595
same,glycan array binding signal (z-score),[5],-0.002
same,glycan array binding signal (z-score),[6],-0.511
same,glycan array binding signal (z-score),Man(a1-3)[Man(a1-6)]Man,-0.485
same,glycan array binding signal (z-score),[7],-0.513
same,glycan array binding signal (z-score),[8],-0.559
same,glycan array binding signal (z-score),[9],0.011
same,glycan array binding signal (z-score),[10],-0.148
same,glycan array binding signal (z-score),[11],-0.227
same,glycan array binding signal (z-score),Man(a1-6)Man,-0.821
same,glycan array binding signal (z-score),Man(b1-4)GlcNAc,0.331
same,glycan array binding signal (z-score),MurNAc(b1-4)GlcNAc,-0.508
same,glycan array binding signal (z-score),Neu5Ac(a2-3)Gal,0.503
same,glycan array binding signal (z-score),[12],-0.26
same,glycan array binding signal (z-score),[13],-0.165
same,glycan array binding signal (z-score),[14],-0.954
same,glycan array binding signal (z-score),[15],0.009
same,glycan array binding signal (z-score),[16],0.341
same,glycan array binding signal (z-score),[17],-0.694
same,glycan array binding signal (z-score),[18],-0.126
same,glycan array binding signal (z-score),[19],-0.364
same,glycan array binding signal (z-score),[20],0.231
same,glycan array binding signal (z-score),[21],1.06
same,glycan array binding signal (z-score),[22],0.026
same,glycan array binding signal (z-score),[23],-0.673
same,glycan array binding signal (z-score),[24],-0.043
same,glycan array binding signal (z-score),[25],0.343
same,glycan array binding signal (z-score),[26],-0.006
same,glycan array binding signal (z-score),[27],0.638
same,glycan array binding signal (z-score),[28],-0.199
same,glycan array binding signal (z-score),[29],-0.483
same,glycan array binding signal (z-score),[30],0.152
same,glycan array binding signal (z-score),[31],-0.804
same,glycan array binding signal (z-score),[32],0.431

# Laid out differently: entries from further up
binder | measurement | setting | value
B1 | glycan array binding signal (z-score) | [10] | -0.148
same | glycan array binding signal (z-score) | Man(b1-4)GlcNAc | 0.331
